From patent US6543181B1, “Fruit fly attractant compositions” (Iowa State University Research Foundation, Inc., priority 2001, dated 2003)
At least one compound was matched to its structure with a doubt left.

Tested on: Drosophila melanogaster antennae
Assay: GC-EAG (electroantennogram) analysis of fermenting fruit volatiles
Conditions: relative EAG response on fly antenna; compounds from fermenting fruit headspace, DB-5 column

Row | Structure (SMILES) | EAG activity
1 | CCC(C)COC(=O)C(C)CC (centres unmarked) [2-methylbutyl-2-methyl butanoate] | +++
2 | C=C1CC/C=C(\C)CC[C@@H]2[C@@H]1CC2(C)C [(E)-Caryophyllene] | +
